Experimental data from patent US20250295801A1, “CD25 ANTIBODIES, ANTIBODY DRUG CONJUGATES, AND USES THEREOF” (Seagen Inc., priority 2024, published 2025).
Positions count from the first letter of the chain named. Results are given in words; binding and its absence hold for the method and conditions named. Some entries that bind do so weakly or less than the wild type.

Columns and labels:
[1] = target: T1, recombinant human CD25 (human, UniProt P01589 22-213, limits assumed, biotinylated in the Octet kinetic assay (site not stated)); assay: ELISA (FIG. 1A)
T1 construct: Soluble recombinant antigen; It was coated on plates for ELISA and used as bought biotinylated protein for BLI; The ELISA and BLI reagents may be different constructs; also called hCD25; CD25/IL2RA
T1 sequence: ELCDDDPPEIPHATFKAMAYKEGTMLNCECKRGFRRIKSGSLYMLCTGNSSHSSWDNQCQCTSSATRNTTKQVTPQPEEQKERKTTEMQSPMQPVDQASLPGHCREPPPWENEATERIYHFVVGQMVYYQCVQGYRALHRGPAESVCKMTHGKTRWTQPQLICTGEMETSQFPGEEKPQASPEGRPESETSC

[2] = target: T2, recombinant cynomolgus CD25 (cynomolgus, UniProt H6WS54 22-213); assay: ELISA (FIG. 1A)
T2 construct: also called cyno CD25; cynomolgus CD25/IL2RA
T2 sequence: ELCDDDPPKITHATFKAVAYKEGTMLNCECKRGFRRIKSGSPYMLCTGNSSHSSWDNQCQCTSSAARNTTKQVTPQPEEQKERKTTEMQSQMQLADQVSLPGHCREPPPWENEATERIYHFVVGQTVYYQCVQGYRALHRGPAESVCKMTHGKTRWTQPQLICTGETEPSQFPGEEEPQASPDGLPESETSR

[3] = target: T1, recombinant human CD25; assay: BLI (Octet RED384), biotinylated hCD25 on SAX tips
[4] = target: T1, recombinant human CD25; assay: saturation binding ELISA on coated recombinant antigen
[5] = target: T2, recombinant cynomolgus CD25; assay: as above
[6] = target: T1, recombinant human CD25; assay: saturation binding ELISA on recombinant human CD25
[7] = target: T2, recombinant cynomolgus CD25; assay: ELISA on plate-coated cynomolgus CD25
[8] = target: T2, recombinant cynomolgus CD25; assay: saturation binding ELISA on recombinant cynomolgus CD25
[9] = target: T1, recombinant human CD25; assay: saturation binding ELISA on plate-coated recombinant human CD25
[10] = target: T2, recombinant cynomolgus CD25; assay: saturation binding ELISA on plate-coated recombinant cynomolgus CD25
[11] = target: T1, recombinant human CD25; assay: biolayer interferometry (Octet RED384), biotinylated recombinant human CD25 on streptavidin (SAX) tips, antibody in solution
[12] = target: recombinant human CD25 (human) (UniProt P01589); assay: saturation binding ELISA on recombinant human CD25
[13] = target: recombinant human CD25 (human) (UniProt P01589); assay: saturation binding ELISA on recombinant human CD25 (FIG. 8A, 8B)
[14] = target: recombinant human CD25 (human) (UniProt P01589); assay: BLI (Octet RED384), biotinylated hCD25 on SAX tips
[15] = target: recombinant cynomolgus CD25 (cynomolgus) (UniProt H6WS54); assay: saturation binding ELISA on recombinant antigen (FIG. 7)
[16] = target: recombinant human CD25 (human) (UniProt P01589); assay: as above
[17] = target: recombinant cynomolgus CD25 (cynomolgus) (UniProt H6WS54); assay: saturation binding ELISA on recombinant cynomolgus CD25
[18] = target: recombinant human CD25 (human) (UniProt P01589); assay: biolayer interferometry (Octet RED384), biotinylated recombinant human CD25 on streptavidin (SAX) tips, antibody in solution
[19] = target: T2, recombinant cynomolgus CD25; assay: ELISA (FIG. 1B)

Measured: binding

B1: CD25 antibody SG25Ab-9 (antibody, human IgG1, lambda, V domains shown)
VH: QVQLVQSGAEVKKPGESLKISCKGSGYSSTSYWIGWVRQMPGKGLEWMGIIYPGDSDTRYSPSFQGQVTISADKSISTAYLQWSSLKASDTAMYYCARLGSYYAFDIWGRGTMVTVSS
VL: QSALTQPASVSASPGQSITISCTGTSSDVGAYIYVSWYQQLSGKPPKLILYDVSKRPSGISDRFSGSKSGNTASLTISGLQADDEADYYCSSYTRSSTWVFGGGTQLTVLG
notes: Fully human antibody from a phage scFv library, expressed as IgG1 with a lambda light chain; HC and LC are the entries without signal peptide; also called SG25Ab-9 IgG1; SGAb25-9
not listed: [12] | [13] | [14] | [15] | [16] | [17] | [18] | [19]
binds: all other assays above

B2: SG25Ab-9 variant YH99A (antibody, V domains shown)
VH: B1 VH with Y103A
VL: B1 VL
notes: Kabat-type numbering, not linear
binds: [12] | [13]

B3: detuned CD25 antibody SG25Ab-9 YH98A (antibody, human IgG1, lambda, V domains shown)
VH: B1 VH with Y102A
VL: B1 VL
notes: IgG1; Tyr to Ala in CDR-H3 (YH98A); also called SGAb25-9 YH98A
binds: [14] | [12] | [15] | [16] | [17] | [13] | [18]

B4: CD25 antibody SG25Ab-4 (antibody, human IgG1, lambda, V domains shown)
VH: EVQLVQSGAEVKKPGESLKISCKGPEYSFNRYWIAWVRQRPGKGLEWMGIIYPGDSDARYSPTFEGHVTLSADMSLTTAYLQWSSLRASDTAMYYCARLGSYYAFDIWGKGTMVTVSS
VL: QSALTQPASVSGSPGQSITIFCTGTSSDVGGYNYVSWYQQHPGKAPKLMIYDVSKRPSGVSNRFSGSKSGNTASLTISGLQAEDEADYYCSSYTSSSTWVFGGGTQLTVLS
notes: IgG1 format; also called SGAb25-4
binds: [19] | [7]
